In PubChem BioAssay AID2685 (National Center for Advancing Translational Sciences (NCATS), 2010):
The list shows a part of the results. Shown are side measurements of this screen, not its main read-out; they come without a call. Most of these compounds were active or inconclusive in the main read-out, so they are no random draw. Potencies come from curve fits of mixed quality, noted in brackets.

Test: qHTS Assay for Lipid Storage Modulators in Drosophila S3 Cells;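 on cell number change: cells counted by Cell Tracker Red CMTPX staining in the red channel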
Details: BODIPY lipid droplet fluorescence, 18-24 h; for cell number change: measured here: cell count max response, cells fed with added oleic acid
How it was run: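 Drosophila S3 cells got compounds at several concentrations plus oleic acid (400 uM solution). Laser-scanning cytometry with 488 nm excitation read lipid droplets at 500-530 nm and cells at 575-640 nm. Percent activity was relative to 20 uM Triacsin C.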

[1] = measured here: cell number channel AC50, cells fed with added oleic acid
[2] = measured here: lipid fluorescence (Fed channel) AC50, cells fed with added oleic acid

Compound | AC50 [1] | cell number change [%] | AC50 [2]
c1ccc(-c2cn3c4c(sc3n2)CCCC4)cc1 | 1.46 µM [rising, partial curve] | – | –
C/C(=N\NC(=O)c1ccc2c(c1)OCO2)c1ccc2c(c1)OCO2 | 0.13 µM [falling, full curve, poor fit] | 1.88 | 0.13 µM [falling, full curve, poor fit]
CCN(CC)C(=O)COc1ccc(-c2ccccc2)cc1 | 0.146 µM [falling, full curve, poor fit] | 24.2 | –
Cc1ccc2cc(C#N)c(SCC(=O)NCC3CCCO3)nc2c1 (stereo unspecified) | – | 9 | –
CC(OC(=O)Cn1cnc2c1c(=O)n(C)c(=O)n2C)C(=O)N(C)c1ccccc1 (stereo unspecified) | – | -21.5 | 8.2 µM [falling, partial curve, poor fit]
O=C(Nc1nc2c(Cl)cccc2s1)c1ccc(Br)o1 | – | -28.4 | –
O=C(Nc1ccc(C(F)(F)F)cc1)C1CCCCN1S(=O)(=O)c1ccccc1 (stereo unspecified) | – | -1.5 | 0.366 µM [rising, partial curve, poor fit]
C=CCOc1ccc(Br)cc1/C=N/O | – | -25.4 | 0.116 µM [falling, full curve, poor fit]
CCN(CC)c1nc(-c2ccccn2)nc(-c2ccccc2)c1C#N | – | -4.56 | 2.59 µM [falling, single point]
O=C(c1cc2c(s1)-c1ccccc1S(=O)(=O)C2)N1CCN(Cc2ccccc2)CC1 | 0.651 µM [rising, full curve] | 35.7 | 1.64 µM [rising, partial curve]
CCOC(=O)C1CCCN(C(=O)Cn2cnc3sc(C)c(S(=O)(=O)N4CCOCC4)c3c2=O)C1 (stereo unspecified) | – | – | 1.16 µM [falling, single point]
O=C(N/N=C/c1cccs1)c1ccc(NC(=O)c2ccccc2Cl)cc1 | – | -16.5 | 16.4 µM [falling, single point]
O=C(NC1CCCCC1)c1ccc(S(=O)(=O)NCc2ccco2)cc1 | – | -5.69 | 25.9 µM [rising, single point]
O=C(CCCc1ccccc1)Nc1ccnn1C1CCN(Cc2ccccc2)CC1 | – | -24.1 | 1.16 µM [rising, single point]
Cc1onc(-c2c(F)cccc2Cl)c1C(=O)NC(=S)Nc1c(C)n(C)n(-c2ccccc2)c1=O | 23.1 µM [rising, single point] | 104 | –
CC(C)OC(=O)CSc1nc2c(c(C3CC=CCC3)c1C#N)CCC2 (stereo unspecified) | – | 16.4 | –
CC(=O)Nc1ccc2nc(NC(=O)c3ccc([N+](=O)[O-])o3)sc2c1 | – | 2.07 | 20.6 µM [falling, single point]

Two entries picked at random from those above, as already listed:
Compound | AC50 [1] | cell number change [%] | AC50 [2]
O=C(Nc1ccc(C(F)(F)F)cc1)C1CCCCN1S(=O)(=O)c1ccccc1 (stereo unspecified) | – | -1.5 | 0.366 µM [rising, partial curve, poor fit]
O=C(N/N=C/c1cccs1)c1ccc(NC(=O)c2ccccc2Cl)cc1 | – | -16.5 | 16.4 µM [falling, single point]
